# Hit rate of the full screen: of about 340,000 compounds, about 170 (0.05%) were called active. The inconclusive results got no clear call from the source; some entries with a clear call stand among them for comparison. Calls come from the whole dose curve; as a rule, active = well fitted inhibition curve with a large enough effect in the signal ratio, with a control signal flat (not every such curve was filed as active); inconclusive = small, poorly fitted or top-dose-only effect, or effect the other way, or a change in a side signal; inactive = flat fitted curve, though single readings scatter; the % refers to the signal ratio. Potencies of inconclusive entries are doubtful fits and often do not repeat.
# Assay: qHTS Assay to Find Inhibitors of Chronic Active B-Cell Receptor Signaling;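 for activity change, negative = inhibition: plate controls were basal doxycycline-induced cells for no effect and cells given 10 µM MG132 for full effect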
# Conditions: ABC-DLBCL IkBa-CBG/CBR reporter, luminescence ratio (green luciferase fused to IkBa over red control in TMD8 lymphoma cells), 4 h; activity change, negative = inhibition: at 46.1 µM (top of the series) unless noted
# Procedure, shortened: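 TMD8 ABC-DLBCL cells carrying doxycycline-inducible green luciferase fused to IkappaBalpha plus unfused red luciferase were exposed to compounds (up to 46 uM) for 4 hrs at 37C. Activity came from the overlap-corrected green/red luminescence ratio.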
# Potency is the fitted concentration of half-maximal effect.
SMILES,"activity change, negative = inhibition",Potency
NC(=O)CSc1n[nH]c(=O)n1CCc1ccccc1,inconclusive: 5.28%,
COc1cccc(C(=O)Nc2cc(NC(=O)c3cccs3)ccc2C)c1,inconclusive: -11.7%,
CC(=O)Nc1ccc(NC(=O)C(C)OC(=O)CC23CC4CC(CC(Br)(C4)C2)C3)cc1 (stereo not drawn),inactive: -0.475%,
CN(Cc1nc(Cc2ccccc2F)no1)CC1(N2CCOCC2)CCCCC1,inactive: 7.25%,
Cc1ccccc1Nc1nc(N)nc(COC(=O)c2ccc(O)cc2)n1,,"inconclusive: 20.6 µM [falling, partial curve]"
CCOc1ccc(S(=O)(=O)N2CCN(Cc3ccco3)CC2)cc1,inactive: -2.63%,
CCOC(=O)C1=C(COC(=O)C(CC)c2ccccc2)NC(=O)NC1C (stereo not drawn),,"inconclusive: 18.4 µM [falling, partial curve, poor fit]"
CCc1ccccc1NNC(=O)c1snnc1C,inactive: 9.35%,
CCOC(=O)c1cc(CC)sc1NC(=O)c1ccc2c(c1)OCCO2,inconclusive: -10.7%,
CC1(C)CC(NC(=O)CC2CCCCC2)CC(C)(C)N1,,"inconclusive: 35.5 µM [falling, partial curve, poor fit]"
Nc1c(C(=O)NCc2ccc3c(c2)OCO3)nnn1Cc1ccc(Br)cc1,inactive: -17.6%,
CCOc1cc(Br)c(CC(=O)NC2CCCCCC2)cc1OCC,inactive: 8.14%,
Nc1ccc2nn(-c3cccc4ccccc34)nc2c1,,"inconclusive: 17.8 µM [falling, partial curve, poor fit]"
CC(C)(C)NC(=O)C[C@H]1C[C@H](C(=O)N2CCOCC2)[C@@]2(CCC3CCCC3)c3[nH]c4ccc(Cl)cc4c3CCN2C1=O,inconclusive: -1.87%,
O=S(=O)(NCC(c1ccc2c(c1)OCO2)N1CCOCC1)c1ccc(Cl)cc1 (stereo not drawn),inconclusive: 1.63%,
COc1ccc(-c2nc(-c3ccc4c(c3)OCO4)[nH]c2-c2ccc(OC)cc2)cc1,inconclusive: 0.138%,
Cc1cc(=O)oc2cc(OCc3ccc(C(=O)OCC(=O)Nc4ccc(N(C)C)cc4)cc3)ccc12,,"inconclusive: 10 µM [falling, partial curve, poor fit]"
COc1ccc(N(CC(=O)N2CC=C(c3ccccc3)CC2)S(=O)(=O)c2c(C)noc2C)cc1,inconclusive: 11.8%,
Cc1nc(Oc2ccc(F)cc2Cl)c2oc3ccccc3c2n1,,"inconclusive: 14.1 µM [rising, partial curve, poor fit]"
Cn1nccc1C(=O)Nc1sc2c(c1C(N)=O)CCCC2,inconclusive: 1.45%,
CC(NC(=O)Nc1ccc(Cl)cc1)c1ccccc1 (stereo not drawn),inconclusive: 9.62%,
COc1cccc(N=Cc2c(O)c3ccccc3oc2=O)c1,inconclusive: -14.2%,
O=C(CN1C(=O)COc2ccccc21)Nc1ccc(F)cc1,inconclusive: 362%,
Cc1cccnc1NC(=O)Nc1cccc(C(F)(F)F)c1,,"inconclusive: 0.259 µM [rising, full curve, poor fit]"
CCc1nc2oc3cc(OC)ccc3c(=O)c2c(=O)n1Cc1ccco1,inconclusive: -1.5%,
C=C(C)C(=O)OCC(O)COc1ccc(C(C)(C)c2ccc(OCC(O)COC(=O)C(=C)C)cc2)cc1 (stereo not drawn),,"inconclusive: 18.4 µM [falling, single point]"

SMILES,"activity change, negative = inhibition",Potency
Cn1ncc2c(Nc3cccc4ccccc34)ncnc21,inconclusive: -27.4%,
CC(CC(=O)Nc1ncc([N+](=O)[O-])s1)c1ccccc1 (stereo not drawn),,"inconclusive: 20 µM [falling, partial curve]"
CCS(=O)(=O)N1Cc2ccccc2CC1C(=O)Nc1nc2ccc(F)cc2s1 (stereo not drawn),inconclusive: -13.1%,
C/C(=N\NC(=O)c1cccnc1)c1ccc(C)c([N+](=O)[O-])c1,,"inconclusive: 17.8 µM [falling, partial curve, poor fit]"
O=C(CC12CC3CC(CC(C3)C1)C2)NC(=S)NCc1ccco1,inactive: 0.747%,
COc1ccc(-n2cnc3cc(NS(=O)(=O)c4ccc(C)cc4)ccc32)cc1,,"inconclusive: 18.4 µM [falling, single point]"
Nc1ccc2c(c1)-c1ccccc1S(=O)(=O)N2,inactive: -0.58%,
O=C(NCC1CCCN(C2Cc3ccccc3C2)C1)c1cccs1 (stereo not drawn),inconclusive: -5.89%,
COc1ccc(CC(=O)Nc2cccc(S(=O)(=O)N3CCCCCC3)c2)cc1OC,inactive: 1.95%,
Fc1ccc(Nc2c3c(nc4ccccc24)CCC3)cc1,inconclusive: -3.36%,
Nc1c(C(=O)Nc2ccc3c(c2)OCCO3)nnn1Cc1cccc(Br)c1,inconclusive: -3.32%,
CCOc1ccc(NC(=O)C(Cc2ccccc2)N2C(=O)c3cccc4cccc(c34)C2=O)cc1 (stereo not drawn),,"inconclusive: 25.1 µM [falling, single point]"
CCN(CC)C(=O)C1CCCN(C(=O)Nc2ccc3nsnc3c2)C1 (stereo not drawn),inconclusive: 0.896%,
CCn1ncc(/C=N\NC(=O)c2csc3ccccc23)c1C,,"inconclusive: 17.8 µM [falling, single point]"
CC1=C(C(=O)Nc2ccccc2C(F)(F)F)C(c2sccc2C)NC(=S)N1 (stereo not drawn),inactive: 0%,
O=S(=O)(NCc1ccc(Cl)cc1)c1cnc[nH]1,inconclusive: -0.467%,
CCOC(=O)C1CCN(C(=O)c2cc3cc4ccc(OC)cc4nc3o2)CC1,,"inconclusive: 31.6 µM [rising, single point]"
O=C(NCc1ccccn1)c1c(O)c2cccc3c2n(c1=O)CC3,inconclusive: 7.45%,
O=C(NC1CCCCC1)C(c1ccncc1)N(Cc1ccc(F)cc1)C(=O)c1ccccn1 (stereo not drawn),inactive: -0.267%,
CC(=O)OCC(OC(C)=O)C(OC(C)=O)C(OC(C)=O)C(=O)Nc1cccc(C)c1 (stereo not drawn),inconclusive: -2.15%,
Cc1ccc(-c2noc(Cn3cc(S(=O)(=O)N4CCCC4)ccc3=O)n2)cc1,,"inconclusive: 3.66 µM [rising, partial curve, poor fit]"
CC1=CC(C)(C)N2C(=O)C(=O)c3cc(OC(=O)c4ccco4)cc1c32,,active: 11.2 µM
O=S(=O)(c1ccc2c(c1)CCC2)N1CCNCC1,inconclusive: 4.71%,
O=C(NCc1cccs1)C1CCCN(c2ncccn2)C1 (stereo not drawn),inactive: 5.75%,
CCOC(=O)C1=C(C)N=c2s/c(=C3/C(=O)Nc4ccccc43)c(=O)n2C1c1ccc(C)cc1 (stereo not drawn),inconclusive: -2.47%,
Nc1ccc(C(=O)N/N=C/c2cn(Cc3ccccc3F)c3ccccc23)cc1,,"inconclusive: 17.8 µM [falling, partial curve, poor fit]"

SMILES,"activity change, negative = inhibition",Potency
COc1ccc(-c2cn3c(C)c(C(=O)Nc4cc(NC(C)=O)ccc4OC)sc3n2)cc1,,"inconclusive: 5.17 µM [falling, single point]"
COc1ccccc1-c1nc(S(=O)(=O)c2ccc(Cl)cc2)c(N(C)C)o1,inactive: -0.927%,
CC(C)Cc1ccc(-c2cc(=O)[nH][nH]2)cc1,,"inconclusive: 22.4 µM [cytotoxic, single point]"
CCOC(=O)N1CCN(C(=O)c2cc3c(-c4cccc(OC)c4)nn(C)c3s2)CC1,inconclusive: -11.2%,
CSc1nsc(SCC(=O)Nc2ccccc2C(N)=O)n1,inconclusive: -2.99%,
CC(C(=O)NC1C=CS(=O)(=O)C1)N1C(=O)/C(=C/c2cccc(Cl)c2)SC1=S (stereo not drawn),,"inconclusive: 28.2 µM [falling, single point]"
Nc1c(C(=O)CSc2nnc(COc3ccc(Cl)cc3)o2)c(=O)[nH]c(=O)n1C1CC1,inconclusive: -0.385%,
CC(C)c1ccc(NC(=O)c2n[nH]c(=O)c3ccccc23)cc1,inconclusive: 15.6%,
Cn1c(=O)c2c(nc(NCc3ccco3)n2Cc2ccc(Cl)cc2Cl)n(C)c1=O,inactive: 2.65%,
COc1ccc(CCNc2nc(-c3sc(C)nc3C)cs2)cc1OC,,"inconclusive: 14.6 µM [activator, partial curve]"
COc1ccc(OC)c(NC(=O)Nc2nnc(N3CCCCC3C)s2)c1 (stereo not drawn),,"inconclusive: 12.6 µM [falling, partial curve]"
COc1ccc(C(=O)Nc2ccc3ccccc3n2)c(OC)c1OC,inconclusive: 8.2%,
COC(=O)c1cc(C(=O)OCC(=O)NNC(=O)c2cccs2)cc([N+](=O)[O-])c1,inactive: 0.936%,
CCc1ccc(S(=O)(=O)NCCc2cn3cccc(C)c3n2)s1,,"inconclusive: 11.2 µM [falling, partial curve, poor fit]"
COc1ccc(CNC(=O)c2cc3cccc(O)c3oc2=N)cc1,inactive: -5.08%,
Cc1cc(C)n(CCc2nc(-c3ccc(-c4ccccc4)cc3)cs2)n1,inconclusive: 3.95%,
CC(=O)Nc1ccc2nc(NC(=O)COc3ccccc3C)sc2c1,inconclusive: 0.292%,
CC(N=Cc1nc(-c2ccccc2)oc1O)c1ccccc1 (stereo not drawn),,"inconclusive: 16.4 µM [rising, partial curve, poor fit]"
CCC(=O)Nc1ccc2c(c1)ncn2-c1ccc(OC)cc1,inconclusive: -9.14%,
CCC(=NCc1ccccc1)C1=C(O)C(C(=O)OC)C(C)(C)CC1=O (stereo not drawn),inconclusive: 5.22%,
O=C(CCN1CCOCC1)Nc1ccc2c(c1)N(C(=O)CN1CCOCC1)c1ccccc1CC2,inconclusive: -0.273%,
Brc1ccccc1-c1nnc(COc2cccc3cccnc23)o1,inconclusive: 23.4%,
COc1ccc(-c2n[nH]c(=S)o2)c(OC)c1,inconclusive: 4.09%,
NC(=O)CSc1ccc(S(=O)(=O)N2CCCCC2)cn1,inconclusive: -5.08%,
COc1cc(NC(=O)C2CCC(CNc3c(N4CCCCC4)c(=O)c3=O)CC2)cc(OC)c1 (stereo not drawn),,"inconclusive: 5.17 µM [falling, partial curve, poor fit]"
CC(C)C[C@H]1CN=C(N(C)C)N1CCCCc1ccccc1,inactive: -11.6%,
